{"source": "PubChem BioAssay AID1259405 (NCATS, 2018)", "aim": "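Knock-downs that lift recombinant protein yield in hamster ovary cells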 (primary screen)", "cell system": "Chinese hamster CHO-K1 ovary cells with stable secreted eGFP expression", "reagents": "single siRNA against mouse genes, 0.8 pmol siRNA per well (2 µl of 400 nM stock)", "time to read-out": "3 days", "measured": "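Per-well intracellular GFP measured by laser scanning cytometry, plus viability from ATP luminescence, each relative to plate median of non-targeting control wells, in %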", "direction": "GFP, % of control: higher = more GFP per well, higher productivity; viability (ATP), % of control: higher = more viable cells (more ATP)", "call rule": "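a knock-down is called active if GFP reaches 120% or more of non-targeting control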", "note": "Shown is one part, drawn at random, of about 50,000 deposited reagents. Of all reagents, about 4,000 (8%) were called active. 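Mouse siRNA library applied to hamster cells; one well for each siRNA.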 Entries without a mark were called inactive. The numbers tell different reagents against one gene apart."}
{"Gene": "Gbp2b", "siRNA no.": 1, "GFP, % of control": 25.2, "viability (ATP), % of control": 42.2}
{"Gene": "Gbp2b", "siRNA no.": 2, "GFP, % of control": 51.7, "viability (ATP), % of control": 99.1}
{"Gene": "Gbp2b", "siRNA no.": 3, "GFP, % of control": 37.3, "viability (ATP), % of control": 52.8}
{"Gene": "A730049H05Rik", "siRNA no.": 1, "GFP, % of control": 78.2, "viability (ATP), % of control": 65.1}
{"Gene": "A730049H05Rik", "siRNA no.": 2, "GFP, % of control": 106, "viability (ATP), % of control": 92.1}
{"Gene": "A730049H05Rik", "siRNA no.": 3, "GFP, % of control": "124 (active)", "viability (ATP), % of control": 72.3}
{"Gene": "Gas2l2", "siRNA no.": 1, "GFP, % of control": 53.4, "viability (ATP), % of control": 60.6}
{"Gene": "Gas2l2", "siRNA no.": 2, "GFP, % of control": 80.4, "viability (ATP), % of control": 45}
{"Gene": "Gas2l2", "siRNA no.": 3, "GFP, % of control": "141 (active)", "viability (ATP), % of control": 94.8}
{"Gene": "Chrna4", "siRNA no.": 1, "GFP, % of control": 42.5, "viability (ATP), % of control": 56.5}
{"Gene": "Chrna4", "siRNA no.": 2, "GFP, % of control": 25.8, "viability (ATP), % of control": 48.7}
{"Gene": "Chrna4", "siRNA no.": 3, "GFP, % of control": 69.4, "viability (ATP), % of control": 81.2}
{"Gene": "Cyp2j9", "siRNA no.": 1, "GFP, % of control": 80.1, "viability (ATP), % of control": 76.4}
{"Gene": "Cyp2j9", "siRNA no.": 2, "GFP, % of control": 61.9, "viability (ATP), % of control": 66}
{"Gene": "Cyp2j9", "siRNA no.": 3, "GFP, % of control": 77.1, "viability (ATP), % of control": 84.2}
{"Gene": "Sulf2", "siRNA no.": 1, "GFP, % of control": 91.8, "viability (ATP), % of control": 87.5}
{"Gene": "Sulf2", "siRNA no.": 2, "GFP, % of control": 82.7, "viability (ATP), % of control": 103}
{"Gene": "Sulf2", "siRNA no.": 3, "GFP, % of control": 64.2, "viability (ATP), % of control": 70.3}
{"Gene": "Slc35a1", "siRNA no.": 1, "GFP, % of control": "121 (active)", "viability (ATP), % of control": 131}
{"Gene": "Slc35a1", "siRNA no.": 2, "GFP, % of control": 69.2, "viability (ATP), % of control": 46}
{"Gene": "Slc35a1", "siRNA no.": 3, "GFP, % of control": 62.1, "viability (ATP), % of control": 65.2}
{"Gene": "C3", "siRNA no.": 1, "GFP, % of control": 98.5, "viability (ATP), % of control": 75.3}
{"Gene": "C3", "siRNA no.": 2, "GFP, % of control": 70.5, "viability (ATP), % of control": 66.1}
{"Gene": "C3", "siRNA no.": 3, "GFP, % of control": 69.9, "viability (ATP), % of control": 70.6}
{"Gene": "Rab19", "siRNA no.": 1, "GFP, % of control": 59.7, "viability (ATP), % of control": 37.6}
{"Gene": "Rab19", "siRNA no.": 2, "GFP, % of control": 37, "viability (ATP), % of control": 45.4}
{"Gene": "Rab19", "siRNA no.": 3, "GFP, % of control": 66.7, "viability (ATP), % of control": 69.4}
{"Gene": "Samt2", "siRNA no.": 1, "GFP, % of control": 38.6, "viability (ATP), % of control": 67.8}
{"Gene": "Samt2", "siRNA no.": 2, "GFP, % of control": 71.6, "viability (ATP), % of control": 38.3}
{"Gene": "Samt2", "siRNA no.": 3, "GFP, % of control": 105, "viability (ATP), % of control": 68.3}
{"Gene": "Ccnh", "siRNA no.": 1, "GFP, % of control": 107, "viability (ATP), % of control": 96.5}
{"Gene": "Ccnh", "siRNA no.": 2, "GFP, % of control": 67.7, "viability (ATP), % of control": 77.3}
{"Gene": "Tubb2b", "siRNA no.": 1, "GFP, % of control": 54.9, "viability (ATP), % of control": 81}
{"Gene": "Tubb2b", "siRNA no.": 2, "GFP, % of control": 85.5, "viability (ATP), % of control": 107}
{"Gene": "Dhrs13", "siRNA no.": 1, "GFP, % of control": 39.7, "viability (ATP), % of control": 55.3}
{"Gene": "Dhrs13", "siRNA no.": 2, "GFP, % of control": 92.5, "viability (ATP), % of control": 73.7}
{"Gene": "Dhrs13", "siRNA no.": 3, "GFP, % of control": "122 (active)", "viability (ATP), % of control": 96}
{"Gene": "Tgm5", "siRNA no.": 1, "GFP, % of control": "146 (active)", "viability (ATP), % of control": 109}
{"Gene": "Tgm5", "siRNA no.": 2, "GFP, % of control": 62.5, "viability (ATP), % of control": 89.5}
{"Gene": "Tgm5", "siRNA no.": 3, "GFP, % of control": 43, "viability (ATP), % of control": 66.8}

Entries listed so far whose gene name starts with T or t (5):
{"Gene": "Tubb2b", "siRNA no.": 1, "GFP, % of control": 54.9, "viability (ATP), % of control": 81}
{"Gene": "Tubb2b", "siRNA no.": 2, "GFP, % of control": 85.5, "viability (ATP), % of control": 107}
{"Gene": "Tgm5", "siRNA no.": 1, "GFP, % of control": "146 (active)", "viability (ATP), % of control": 109}
{"Gene": "Tgm5", "siRNA no.": 2, "GFP, % of control": 62.5, "viability (ATP), % of control": 89.5}
{"Gene": "Tgm5", "siRNA no.": 3, "GFP, % of control": 43, "viability (ATP), % of control": 66.8}
